In PubChem BioAssay AID493014 (National Center for Advancing Translational Sciences (NCATS), 2011):
Some of the results follow. These are further read-outs of the screen, such as a control signal, another cell line or another target. No call is given for them. Most of these compounds were active or inconclusive in the main read-out, so they are no random draw. Words in brackets tell the shape of the fitted curve; partial curves, single points and poor fits give uncertain potencies.

Assay: qHTS Assay to Find Inhibitors of Chronic Active B-Cell Receptor Signaling
Conditions: ABC-DLBCL IkBa-CBG/CBR reporter, luminescence ratio (green luciferase fused to IkBa over red control in TMD8 lymphoma cells), 4 h
Outline: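 Concentration-response series (up to 46 uM) were applied to TMD8 dual-reporter cells for 4 h at 37C with doxycycline. Green/red ratio, after filter-overlap correction, defined %Activity; red signal alone was normalised to basal cells and zero luminescence.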

[1] = measured here: CBR red luminescence, cell number
[2] = measured here: IkBa-CBG green luminescence

Compound | AC50 [1] | AC50 [2]
O=C(CCCN1C(=O)c2cccc3cccc(c23)C1=O)Nc1ccon1 | 14.1 µM [rising, partial curve, poor fit] | 
Cc1cccc2c(C(=O)N3CCN(c4ccccc4)CC3)cc(-c3ccncc3)nc12 | 15.8 µM [rising, single point] | 22.4 µM [falling, single point]
Cc1occc1C(=O)NCCCCc1ccccc1 | 5.8 µM [falling, partial curve] | 
COc1ccc(Cn2c(C(F)(F)F)ccc(C(N)=O)c2=O)cc1 | 0.501 µM [rising, full curve, poor fit] | 
CC(C)CC1NC(=O)N(CC(=O)N2CCN(S(=O)(=O)c3ccc(Cl)cc3)CC2)C1=O (stereo unspecified) | 2.06 µM [rising, single point] | 
COc1cc(/C=N/NC(=O)c2ccc3ccccc3c2)ccc1Oc1ccc([N+](=O)[O-])cn1 | 7.31 µM [falling, partial curve] | 
CCC1=NN2C(=N)/C(=C\c3ccc(OCCOc4ccccc4)c(OC)c3)C(=O)N=C2S1 | 0.631 µM [rising, full curve, poor fit] | 
COc1cccc2[nH]c(C(=O)NCCCN3CCCC3=O)cc12 | 3.16 µM [falling, partial curve, poor fit] | 
COc1ccc(-c2csc(NC(=O)CSc3nnnn3C)n2)cc1OC | 6.51 µM [rising, single point] | 
CCOc1ccc(C(=O)NC(=S)Nc2cccnc2)cc1[N+](=O)[O-] | 3.55 µM [rising, single point] | 
Cn1c(Cl)cnc1C1CC(=O)c2cc(Cl)ccc2O1 (stereo unspecified) | 25.9 µM [falling, single point] | 
Cc1cccc(NC(=O)C2COc3ccccc3O2)c1 (stereo unspecified) | 0.398 µM [rising, partial curve, poor fit] | 
CC(=O)N1CCN(c2ccc(NC(=O)c3ccccc3Cl)cc2)CC1 | 25.1 µM [falling, single point] | 
Cc1ccc(F)cc1NC(=O)CN1C(=O)NC(C)(c2ccc3c(c2)OCCO3)C1=O (stereo unspecified) | 29.1 µM [rising, single point] | 
COc1ccc(CCNc2nc(-c3ccccn3)cs2)cc1OC | 11.2 µM [falling, partial curve] | 
O=C(N/N=C\c1ccc(S(=O)(=O)O)o1)c1ccc2c(c1)OCO2 | 17.8 µM [falling, single point] | 
C=CCc1cccc2cc(C(=O)Nc3ccc(CC(=O)O)cc3)c(=O)oc12 | 1.12 µM [falling, full curve] | 
COc1ccc(CCC(=O)Nc2cc3c4c(c2)CCC(=O)N4CCC3)cc1 | 6.51 µM [rising, single point] | 
CCOC(=O)c1c(NC(=O)CSc2nnc(-c3cccnc3)n2Cc2ccco2)sc(C)c1C | 11.2 µM [falling, partial curve, poor fit] | 
CC(C)CSc1nnc2c3ccccc3n(C)c2n1 | 1 µM [rising, full curve, poor fit] | 
N#CC1=CN(Cc2ccccc2)C=C(/C=N/Nc2ccccc2)C1 | 14.1 µM [falling, single point] | 
COc1ccccc1-n1c(SCC(=O)Nc2ccc(F)cc2)nc2c(c1=O)SCC2 | 20.6 µM [falling, single point] | 

Compound | AC50 [1] | AC50 [2]
Nc1cc(-c2ccccc2)nn1Cc1ccc(Cl)cc1 | 35.5 µM [falling, single point] | 
Cc1ccc(OCCCn2c(CO)nc3ccccc32)cc1 | 2.59 µM [rising, partial curve, poor fit] | 
COc1ccc(CCN=C(N)Nc2nc(C)cc(C)n2)cc1 | 14.1 µM [falling, partial curve, poor fit] | 
COc1ccc(C2CC(c3cccs3)=Nc3ccccc3S2)cc1 (stereo unspecified) | 16.4 µM [falling, single point] | 25.9 µM [falling, single point]
COc1ccc(S(=O)(=O)CCC(=O)Nc2cccc(OC)c2)cc1 | 0.708 µM [rising, partial curve, poor fit] | 
COc1ccccc1C1(CC(=O)Nc2nccs2)CCOC(C(C)C)C1 (stereo unspecified) | 5.01 µM [falling, partial curve, poor fit] | 
COc1ccc(C(=O)NC2=Nc3ccccc3N=C(C)C2c2ccccc2)cc1 (stereo unspecified) | 31.6 µM [falling, single point] | 
CCOC(=O)c1cc(-c2ccccc2)n(CC(=O)N(C)c2ccc(OC)cc2)c1C | 1.78 µM [rising, full curve, poor fit] | 
CCOC(=O)c1ccc(S(=O)(=O)NCC(c2ccc(N(C)C)cc2)c2c[nH]c3ccccc23)cc1 (stereo unspecified) |  | 20.6 µM [rising, partial curve, poor fit]
O=C(O)c1cccc(NC(=S)NC(=O)c2ccc3ccccc3c2)c1 | 4.47 µM [falling, full curve] | 
CC(C)C(C(=O)Nc1ncn[nH]1)N1C(=O)c2ccccc2C1=O (stereo unspecified) | 29.1 µM [falling, single point] | 
Clc1ccc(-c2cc(COc3ccccc3)no2)cc1Cl | 2.24 µM [rising, full curve, poor fit] | 
CCOC(=O)c1ccccc1NC(=O)COc1ccccc1 | 7.31 µM [falling, partial curve, poor fit] | 
COCCNCC(=O)NCC12CC3CC(CC(C3)C1)C2 | 11.6 µM [rising, partial curve, poor fit] | 
Nc1cc(Cl)nc(N/N=C/c2ccc([N+](=O)[O-])cc2)n1 | 6.51 µM [rising, single point] | 
CCOC(=O)CC(=O)CSc1nc(N)c(C#N)c(-c2ccc(F)cc2)c1C#N | 7.08 µM [falling, partial curve, poor fit] | 
COc1cccc(NC(=O)Nc2cc(C)ccc2F)c1 | 6.31 µM [falling, partial curve] | 
Cc1ccc(C(=O)N(Cc2nc(-c3ccc(C)cc3)no2)C(C)C)cc1 | 4.11 µM [falling, single point] | 
CCOC(=O)c1c(/N=C/C2C(=O)CCCC2=O)sc(C)c1C | 14.6 µM [rising, partial curve, poor fit] | 
COC(=O)C1CCN(C(=O)c2cc(-c3ccc(Cl)s3)nc3ccccc23)CC1 | 29.1 µM [falling, single point] | 
COc1ccc(S(=O)(=O)N2CCOCC2)cc1NC(=O)/C=C/c1ccccc1 |  | 14.6 µM [falling, partial curve, poor fit]
On1c(-c2ccc(Cl)cc2)nc2ccccc21 | 7.08 µM [falling, partial curve] | 

Part of the list above in order of molar mass, low to high:
Compound | AC50 [1] | AC50 [2]
Nc1cc(Cl)nc(N/N=C/c2ccc([N+](=O)[O-])cc2)n1 | 6.51 µM [rising, single point] | 
CCOC(=O)c1ccccc1NC(=O)COc1ccccc1 | 7.31 µM [falling, partial curve, poor fit] | 
COc1ccc(C(=O)NC2=Nc3ccccc3N=C(C)C2c2ccccc2)cc1 (stereo unspecified) | 31.6 µM [falling, single point] | 

(list continues)

Compound | AC50 [1] | AC50 [2]
CC(=O)Nc1cccc(NC(=O)CSc2ccc(C(F)(F)F)cc2[N+](=O)[O-])c1 | 2.82 µM [rising, single point] | 
Cn1c(Sc2ccc(C(F)(F)F)cc2[N+](=O)[O-])nnc1-c1ccccc1 | 1.26 µM [falling, partial curve, poor fit] | 
O=C(Cc1ccccc1)NCc1ccncc1 | 2.82 µM [falling, full curve] | 
O=C(COc1ccc(F)cc1Cl)Nc1ccc(S(=O)(=O)Nc2nccs2)cc1 | 29.1 µM [falling, single point] | 
CCN1CCCC1CNC(=O)C(=O)Nc1ccccc1OC (stereo unspecified) | 3.98 µM [falling, partial curve] | 
CC(C)/C=C(/C(=O)c1ccc(Cl)cc1Cl)n1cncn1 | 10 µM [falling, partial curve, poor fit] | 
CCn1c(=N)c(S(=O)(=O)c2ccc(C)cc2)cc2c(=O)n3ccccc3nc21 | 20 µM [rising, partial curve, poor fit] | 
Oc1ccc(Br)cc1CNc1ccccn1 | 1.78 µM [rising, partial curve, poor fit] | 
COCCNC(=S)N/N=C(\C)c1ccc(C)c([N+](=O)[O-])c1 |  | 29.1 µM [falling, single point]
COc1ccc(-c2cc(C(=O)Nc3cccc(Cl)c3)no2)cc1 | 3.16 µM [falling, partial curve, poor fit] | 
CCC(=O)N1CCc2cc(Br)cc(S(=O)(=O)NCC3CCCO3)c21 (stereo unspecified) | 0.164 µM [rising, full curve] | 
Cc1ccc2c(c1)[C@H]1[C@H](CO2)[C@H](c2ccccc2)[C@]2(C)C(=O)N(Cc3ccc(Cl)cc3)CC(=O)N12 | 6.51 µM [rising, single point] | 
CCOC(=O)c1c(-c2ccc(Cl)cc2)c(C#N)c(=O)n(N)c1N | 10.3 µM [falling, partial curve, poor fit] | 
COc1ccccc1/C=N/NC(=O)c1csc(C)c1C | 9.2 µM [falling, partial curve] | 
Cc1c(NC(=S)NC(=O)c2cc3ccccc3o2)cccc1C(=O)O | 1.41 µM [falling, partial curve] | 
CCOC(=O)C1=C(CSc2nc3c(cc2C#N)CCC3)OC(N)=C(C#N)C1c1ccccc1 (stereo unspecified) | 15.8 µM [falling, partial curve, poor fit] | 
CCOCC(=O)Nc1ccc(OCc2ccccc2)cc1 | 15.8 µM [rising, partial curve, poor fit] | 
COC(=O)c1cc(NC(=O)c2ccc(Cn3cc(Cl)cn3)o2)cc(C(=O)OC)c1 | 29.1 µM [falling, single point] | 
CCOC(=O)c1cc(-c2ccc3c(c2)OCO3)nc2onc(C)c12 | 0.103 µM [rising, full curve, poor fit] | 
COc1cccc(/C=N/NC(=O)NC2CCCCC2)c1O | 11.2 µM [falling, partial curve, poor fit] | 
